Laboratory results taken from PubChem BioAssay AID2685 (National Center for Advancing Translational Sciences (NCATS), 2010).
This is one part of the list. The main result of the screen is listed elsewhere. These columns were measured beside it and carry no call. Compounds called inactive in the main read-out are mostly missing here. Potencies come from curve fits of mixed quality, noted in brackets.

Experiment: qHTS Assay for Lipid Storage Modulators in Drosophila S3 Cells;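 for cell number change: cells counted by Cell Tracker Red CMTPX staining in the red channel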
Settings: BODIPY lipid droplet fluorescence, 18-24 h; for cell number change: measured here: cell count max response, cells fed with added oleic acid
Procedure, shortened: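 Drosophila S3 cells loaded with oleic acid (400 uM, as added) and compounds at several concentrations; lipid droplets imaged by 488-nm laser-scanning cytometry, 500–530 nm intensity and object ratio to cell channel. Percent activity normalized to 20 uM Triacsin C.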

[1] = measured here: cell number channel AC50, cells fed with added oleic acid
[2] = measured here: lipid fluorescence (Fed channel) AC50, cells fed with added oleic acid

Compound | cell number change | AC50 [1] | AC50 [2]
O=S(=O)(Nc1ccc2cn[nH]c2c1)c1ccc(Cl)s1 | 32.6% | 0.231 µM [rising, partial curve, poor fit] | –
CCN(NC(=O)C(O)(c1ccccc1)c1ccccc1)C(=O)c1ccccc1 | -33.3% | 20.6 µM [falling, partial curve, poor fit] | 29.1 µM [falling, single point]
CC(OC(=O)Cc1c[nH]c2ccccc12)C(=O)Nc1ccccc1F (stereo not drawn) | – | 6.51 µM [falling, single point] | 10.3 µM [falling, partial curve]
CN(NC(=O)C(C)(C)C)c1nc(-c2ccccc2)nnc1C(F)(F)F | – | 0.651 µM [rising, partial curve] | 1.16 µM [rising, partial curve]
CC(C1CC1)N(Cc1ccccc1)C(=S)Nc1cccc(C(F)(F)F)c1 (stereo not drawn) | -1.81% | – | 0.82 µM [falling, full curve, poor fit]
CC(=O)N1CCCc2cc(S(=O)(=O)N3CCCC(C)C3)ccc21 (stereo not drawn) | 21.4% | – | 13 µM [rising, partial curve, poor fit]
O=C(NC1CC1)c1c(O)c2ccccc2[nH]c1=O | – | 5.8 µM [falling, single point] | –
O=C(Nc1ccccc1F)C1CCCN(S(=O)(=O)c2ccccc2)C1 (stereo not drawn) | 33.2% | – | –
COC(=O)C1=NN(C(=O)c2ccc(C)cc2)C(O)(c2ccc(Cl)cc2)C1 (stereo not drawn) | 72.2% | 29.1 µM [rising, single point] | 29.1 µM [rising, single point]
COc1ccccc1-c1cc(-c2ccccc2)nc(SC(C(N)=O)c2ccccc2)c1C#N (stereo not drawn) | -47.2% | 23.1 µM [falling, partial curve, poor fit] | –
Cc1ccc(-c2nn(Cc3ccccc3)cc2C(=O)N2CCN(c3ccccn3)CC2)cc1 | -3.06% | 2.06 µM [rising, partial curve, poor fit] | 1.3 µM [rising, full curve]
CCOc1ccc(NC(=O)C2CCN(S(=O)(=O)c3cccnc3)CC2)cc1 | – | 0.326 µM [rising, full curve] | –
CN(C)c1ccc(S(=O)(=O)N2CCCCC2)cc1NC(=O)C1CSC2(C)CCC(=O)N12 (stereo not drawn) | 2.69% | – | 29.1 µM [rising, single point]
COc1ccc(CCn2c(C)cc3c(c2=O)C(c2ccc4c(c2)OCO4)C(C#N)=C(N)O3)cc1OC (stereo not drawn) | -16.6% | – | 0.651 µM [rising, partial curve]
CC(C)C(=O)Nc1ccc(C(=O)CSc2nnc(C3CC3)n2C2CC2)cc1 | -36.3% | 3.26 µM [falling, full curve] | 3.66 µM [falling, full curve]
O=C(O)c1ccccc1S | -5.83% | 1.03 µM [falling, full curve, poor fit] | –
COc1ccc(S(=O)(=O)N2CCOC23CCN(S(=O)(=O)c2ccc(F)cc2C)CC3)cc1 | -14% | – | 18.4 µM [falling, partial curve, poor fit]
CCN(C(=O)Cn1cnc2cc([N+](=O)[O-])ccc2c1=O)C1CCS(=O)(=O)C1 (stereo not drawn) | – | 0.206 µM [falling, full curve, poor fit] | –

Compound | cell number change | AC50 [1] | AC50 [2]
Cc1ccc2c(c1)N(C(=O)CCC(=O)NC1CCC(C)CC1)CCO2 (stereo not drawn) | 3.17% | – | 16.4 µM [falling, single point]
Cc1ccc2c(c1)N(CC(=O)NC1CCCCCC1)C(=O)c1cccnc1O2 | -6.49% | 7.31 µM [falling, partial curve, poor fit] | –
COc1ccc(C(=O)NCCS(=O)(=O)NC2CCCC2)cc1 | – | 6.51 µM [rising, single point] | –
CCNc1nc(Oc2ccc(Cl)cc2Cl)cc(C(F)(F)F)n1 | -98.6% | 29.1 µM [falling, single point] | 29.1 µM [falling, single point]
COCCn1nnnc1C(c1cccc(OC)c1OC)N1CCN(C2CCCCC2)CC1 (stereo not drawn) | -3.96% | – | –
Cc1cc(Cl)ccc1OCC(=O)N[C@@H](Cc1ccccc1)c1nc2ccccc2[nH]1 | -53.9% | 14.6 µM [falling, partial curve, poor fit] | 16.4 µM [falling, partial curve]
COc1ccc(NC(=O)CC2(CC(=O)O)CCCC2)cn1 | -52.1% | 3.66 µM [falling, full curve] | 4.61 µM [falling, single point]
Cc1ccc(SCCNC(=O)c2ccc(C)c(S(=O)(=O)Nc3ccccc3C)c2)cc1 | -34.6% | 3.66 µM [falling, partial curve] | –
CCS(=O)(=O)N1CCC(C(=O)N2CCc3ccccc3C2)CC1 | -20.8% | – | 1.3 µM [falling, full curve]
CCN(CC(=O)N1CCN(C)CC1)S(=O)(=O)c1ccc(Cl)cc1 | -1.01% | – | 8.2 µM [falling, partial curve, poor fit]
C=CCN=c1scc(C)n1/N=C/c1ccc(O)c(O)c1 | 25.9% | 0.259 µM [rising, full curve] | 0.731 µM [rising, full curve]
CCN(CC)c1ccc(/C=N/N2CCN(Cc3ccc(C)cc3)CC2)c(O)c1 | -23.8% | 0.013 µM [falling, full curve, poor fit] | –
CCCSc1nsc(N)n1 | 1.32% | – | 23.1 µM [falling, single point]
COc1ccc(NS(=O)(=O)c2ccc(Cl)c(N)c2)cc1Br | -82.1% | 29.1 µM [falling, single point] | 29.1 µM [falling, single point]
CC(C)(C)NC(=O)C(c1cccnc1)N(C(=O)c1ccc(Cl)nc1)C1CCCC1 (stereo not drawn) | -1.44% | – | 32.6 µM [falling, single point]
O=C(Cc1ccc(-n2cccc2)cc1)NCc1ccccc1Cl | -37.9% | 0.231 µM [falling, partial curve, poor fit] | –
COC(=O)c1ccccc1NC(=O)CSc1nnc(-c2cccc(NC(C)=O)c2)n1C | 28% | – | 0.366 µM [rising, full curve]

Reprinted from the results shown for reference:
Compound | cell number change | AC50 [1] | AC50 [2]
O=C(Cc1ccc(-n2cccc2)cc1)NCc1ccccc1Cl | -37.9% | 0.231 µM [falling, partial curve, poor fit] | –
COC(=O)c1ccccc1NC(=O)CSc1nnc(-c2cccc(NC(C)=O)c2)n1C | 28% | – | 0.366 µM [rising, full curve]
